Results are given in words; binding and its absence hold for the method and conditions named. Some entries that bind do so weakly or less than the wild type. Tags and fused reporters may be left off the sequences shown.
Tests used:
[1] = target: T1, matrilin-3 as present in mouse cartilage tissue (growth plate cartilage lysate, embryo sections) (mouse) (UniProt O35701); assay: ELISA on coated organ lysates
T1 sequence (looked up): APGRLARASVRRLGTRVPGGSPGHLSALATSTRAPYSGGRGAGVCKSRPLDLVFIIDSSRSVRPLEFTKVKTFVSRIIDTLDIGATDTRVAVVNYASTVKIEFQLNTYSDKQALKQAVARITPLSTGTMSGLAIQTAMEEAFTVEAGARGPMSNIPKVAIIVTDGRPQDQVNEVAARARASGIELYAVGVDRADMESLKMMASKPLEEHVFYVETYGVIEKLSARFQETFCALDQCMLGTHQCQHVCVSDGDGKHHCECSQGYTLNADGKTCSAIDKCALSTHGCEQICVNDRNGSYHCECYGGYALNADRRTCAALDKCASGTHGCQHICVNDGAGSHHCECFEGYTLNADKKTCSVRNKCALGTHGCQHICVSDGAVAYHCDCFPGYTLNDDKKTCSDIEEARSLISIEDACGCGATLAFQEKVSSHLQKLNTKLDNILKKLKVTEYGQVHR

[2] = target: T1, matrilin-3 as present in mouse cartilage tissue (growth plate cartilage lysate, embryo sections) (mouse); assay: ELISA on coated tissue lysates of 4-day old mice, scFv-Fc supernatant, HRP anti-Fc
[3] = target: T1, matrilin-3 as present in mouse cartilage tissue (growth plate cartilage lysate, embryo sections) (mouse); assay: immunohistochemistry on frozen E15 mouse embryo sections
[4] = target: T1, matrilin-3 as present in mouse cartilage tissue (growth plate cartilage lysate, embryo sections) (mouse); assay: ELISA on coated tissue homogenates

binding [1]: binds
binding [2]: binds
binding [3]: binds
binding [4]: binds
B1: matrilin-3-binding antibody fragment 22 (clone 22 scFv fused with human IgG1 Fc fragment) (Fc fusion)
scFv: LQQSGPGLVKPSQTLSLTCAISGDSVSSNSAAWNWIRQSPSRGLEWLGRTYYGSKWYNDYAPSVKSRISINPDTSKNQFSLQLNSVTPEDTAVYYCTRGIWNAFDIWGQGTMVTVSSGGGGSGGGASGGGGSSSELTQDPAVSVALGQTVRITCQGDSLRSYYASWYQQKPGQAPLLVIYDRDNRPSGIPDRFSGSSSGNTASLTITGAQAEDEADYYCQSYDTSLSWVFGGGTQLTVL
notes: Tested as scFv-Fc; not shown: human IgG1 Fc fragment encoded by the modified pSecTagB vector; Avi tag downstream of the Fc in the vector

Reference: patent US20160340418A1 (US Dept. of Health and Human Services, published 2016)
